Results deposited as PubChem BioAssay AID1224828 (NIAID, 2016)
Shown is a random part of about 17,000 reagents. Over the whole deposit, 762 (4.5%) are marked active. 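Active calls include both raised and lowered p65 entry, mostly lowered; wells with fewer than 50 cells lack a z-score.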 The raw values are shown without normalisation.

Screen: 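Find genes required for NF-kappaB p65 moving into the nucleus after LPS in mouse macrophages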 (primary screen)
System: mouse RAW264.7 G9 macrophage reporter cells (GFP-p65, Tnf promoter-mCherry)
Knock-down reagent: siRNA pool against mouse genes, 100 nM
Timing: 2 days siRNA transfection, then 40 min LPS before fixation
Conditions: LPS (Salmonella minnesota R595) at 10 ng/ml
Measurement: 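Imaged p65 nuclear translocation ratio, normalised to the plate median, converted to robust z-scores and averaged across two replicates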
Direction: p65 translocation robust z-score: higher = more nuclear NF-kappaB p65 after LPS than the plate median; nuclear/cytoplasmic p65 ratio: higher = more nuclear NF-kappaB p65
Rule for the call: 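Active if robust z is above 3.3 (negative regulators) or below -1.56, the Tlr4 control median (positive regulators); activity score 50 or more; control wells not called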
Calls: active = hit (p65 shift raised or lowered); inactive = no clear change

p65 translocation robust z-score	nuclear/cytoplasmic p65 ratio, rep 1	nuclear/cytoplasmic p65 ratio, rep 2	low cell count flag	Outcome	Gene
0.1	1.41	1.46	enough cells to score	inactive	Itgb6 (integrin beta 6)
-0.58	1.48	1.39	enough cells to score	inactive	Tial1 (Tia1 cytotoxic granule-associated RNA binding protein-like 1)
3.18	1.77	2.04	enough cells to score	inactive	Med12l (mediator complex subunit 12-like)
1.3	1.6	1.53	enough cells to score	inactive	Emp1 (epithelial membrane protein 1)
-0.13	1.44	1.24	enough cells to score	inactive	Or52n5 (olfactory receptor family 52 subfamily N member 5)
1.33	1.91	1.87	enough cells to score	inactive	Mns1 (meiosis-specific nuclear structural protein 1)
0.47	1.72	1.72	enough cells to score	inactive	Ccdc184 (coiled-coil domain containing 184)
-0.67	1.32	1.17	enough cells to score	inactive	Pcdh10 (protocadherin 10)
1.11	1.75	2.02	enough cells to score	inactive	Tmtc1 (transmembrane and tetratricopeptide repeat containing 1)
-0.02	1.5	1.53	enough cells to score	inactive	Slc2a1
0.17	1.47	1.26	enough cells to score	inactive	Or5p56 (olfactory receptor family 5 subfamily P member 56)
-0.19	1.31	1.32	enough cells to score	inactive	Psmg3 (proteasome (prosome, macropain) assembly chaperone 3)
-0.53	1.32	1.36	enough cells to score	inactive	Six3os1 (SIX homeobox 3, opposite strand 1)
0.1	1.43	1.26	enough cells to score	inactive	Slc15a1
-0.84	1.65	1.35	enough cells to score	inactive	Nudt14 (nudix hydrolase 14)

5 entries already listed, arranged by “nuclear/cytoplasmic p65 ratio, rep 2”, low to high.
p65 translocation robust z-score	nuclear/cytoplasmic p65 ratio, rep 1	nuclear/cytoplasmic p65 ratio, rep 2	low cell count flag	Outcome	Gene
-0.67	1.32	1.17	enough cells to score	inactive	Pcdh10 (protocadherin 10)
0.17	1.47	1.26	enough cells to score	inactive	Or5p56 (olfactory receptor family 5 subfamily P member 56)
-0.02	1.5	1.53	enough cells to score	inactive	Slc2a1
0.47	1.72	1.72	enough cells to score	inactive	Ccdc184 (coiled-coil domain containing 184)
1.11	1.75	2.02	enough cells to score	inactive	Tmtc1 (transmembrane and tetratricopeptide repeat containing 1)

Continued.
p65 translocation robust z-score	nuclear/cytoplasmic p65 ratio, rep 1	nuclear/cytoplasmic p65 ratio, rep 2	low cell count flag	Outcome	Gene
	1.15	1.26	fewer than 50 cells per well; well left out of scoring	inactive	Aldh4a1 (aldehyde dehydrogenase 4 family, member A1)
-1.71	1.24	1.14	enough cells to score	active	Dnmt3l (DNA methyltransferase 3-like)
0.53	1.66	1.48	enough cells to score	inactive	Tmem70 (transmembrane protein 70)
0.14	1.36	1.27	enough cells to score	inactive	Ppara (peroxisome proliferator activated receptor alpha)
-1.25	1.33	1.3	enough cells to score	inactive	Kcnk1 (potassium channel, subfamily K, member 1)
0.59	1.85	1.7	enough cells to score	inactive	Ndufa2 (NADH:ubiquinone oxidoreductase subunit A2)
4.66	1.8	2.53	enough cells to score	active	Rhou (ras homolog family member U)
1.05	1.7	1.42	enough cells to score	inactive	Cbr3 (carbonyl reductase 3)
1.56	1.97	1.74	enough cells to score	inactive	Nxph2 (neurexophilin 2)
0.4	1.31	1.3	enough cells to score	inactive	Slc27a1
	1.35	1.36	fewer than 50 cells per well; well left out of scoring	inactive	Fgfbp3 (fibroblast growth factor binding protein 3)
	1.43	1.5	fewer than 50 cells per well; well left out of scoring	inactive	Tnfrsf14
-0.61	1.38	1.21	enough cells to score	inactive	Pde6b (phosphodiesterase 6B, cGMP, rod receptor, beta polypeptide)
	1.29	1.35	fewer than 50 cells per well; well left out of scoring	inactive	Sft2d2 (SFT2 domain containing 2)
0.5	1.57	1.64	enough cells to score	inactive	Prxl2c (peroxiredoxin like 2C)
1.25	1.83	1.93	enough cells to score	inactive	Slc22a30
-0.33	1.59	1.5	enough cells to score	inactive	Gsx2 (GS homeobox 2)
-1.34	1.54	1.31	enough cells to score	inactive	Nup50 (nucleoporin 50)
-0.12	1.49	1.52	enough cells to score	inactive	Tnfsf4 (tumor necrosis factor (ligand) superfamily, member 4)
-0.88	1.25	1.11	enough cells to score	inactive	Tas2r136 (taste receptor, type 2, member 136)
-1.06	1.35		enough cells to score	inactive	Pik3ip1 (phosphoinositide-3-kinase interacting protein 1)
-0.09	1.75	1.3	enough cells to score	inactive	Prkg1 (protein kinase, cGMP-dependent, type I)
-0.88	1.37	1.09	enough cells to score	inactive	Zdhhc14 (zinc finger, DHHC domain containing 14)
	1.44	1.4	fewer than 50 cells per well; well left out of scoring	inactive	Zfp418 (zinc finger protein 418)
-0.14	1.37	1.36	enough cells to score	inactive	Atr (ataxia telangiectasia and Rad3 related)
